Assay: sensitometry of multicolor transfer images, integral film units (Table I)
Details: integral film unit
Description: For purposes of illustrating the invention, multicolor photosensitive element using, as the cyan, magenta and yellow dye developers was prepared by coating a gelatin-subcoated 4 mil opaque polyethylene terephthalate film base with the following layers:
A transparent 4 mil polyethylene terephthalate film base was coated, in succession, with the following layers to form an image-receiving component:
The aqueous alkaline processing composition comprised the following in % by weight.
The photosensitive element was exposed to a multicolor stepwedge through the image-receiving element superposed on the photosensitive element, and a rupturable container of the processing composition attached. This assembly was passed between a pair of pressure rolls so that a layer approximately 0.003" thick of the processing composition was distributed between the gelatin overcoat layer 9 of the photosensitive element and the image-receiving layer 3 of the image-receiving element. The blue, green and red D log E curves of the resulting multicolor transfer image (control image) were prepared.
Test multicolor transfer images were prepared in the same manner described above using an identical processing composition and identical photosensitive and image-receiving elements except that the compounds prepared in Examples 16, 26, 27 and 39 above were incorporated in the image-receiving layer 3 at the coverages (mgs./ft.^2) designated in Table I below. The blue, green and red D log E curves of the test images were prepared, and the speed in log E units for the blue, green and red H and D curves was measured at the 0.75 reflection density intercept of the neutral density column (0.75 Neut. Exp.) for each pair of control and test multicolor transfer images. The log E speed measurements obtained at said 0.75 reflection density-exposure intercept and the maximum and minimum reflection densities (Dmax and Dmin) obtained for the blue (B), green (G), and red (R) H and D curves are set forth in Table I.
In addition to the above, test multicolor transfer images using the compounds of Examples 26 and 39 were prepared in the same manner described above, the photosensitive elements and the image-receiving elements were superimposed prior to exposure, and exposure to a multicolor stepwedge was made through the image-receiving element of the integral film unit. The log E speed measurements and the reflection densities as determined for each pair of control and test images of the integral film units also are set forth in Table I below.

Compound	0.75 Neut. Exp. B (log E speed) (dye coverage 5 mgs./ft.^2) [log E units]	0.75 Neut. Exp. G (log E speed) (dye coverage 5 mgs./ft.^2) [log E units]	0.75 Neut. Exp. R (log E speed) (dye coverage 5 mgs./ft.^2) [log E units]	Dmax B (dye coverage 5 mgs./ft.^2)	Dmax G (dye coverage 5 mgs./ft.^2)	Dmax R (dye coverage 5 mgs./ft.^2)	Dmin B (dye coverage 5 mgs./ft.^2)	Dmin G (dye coverage 5 mgs./ft.^2)	Dmin R (dye coverage 5 mgs./ft.^2)	0.75 Neut. Exp. B (log E speed) (dye coverage 3 mgs./ft.^2) [log E units]	0.75 Neut. Exp. G (log E speed) (dye coverage 3 mgs./ft.^2) [log E units]	0.75 Neut. Exp. R (log E speed) (dye coverage 3 mgs./ft.^2) [log E units]	Dmax B (dye coverage 3 mgs./ft.^2)	Dmax G (dye coverage 3 mgs./ft.^2)	Dmax R (dye coverage 3 mgs./ft.^2)	Dmin B (dye coverage 3 mgs./ft.^2)	Dmin G (dye coverage 3 mgs./ft.^2)	Dmin R (dye coverage 3 mgs./ft.^2)
COCC(=O)OCc1ccccc1C(=C1C=C(OC)C(=O)C(OC)=C1)c1cc(OC)c(O)c(OC)c1 [Example 39]	1.54	1.61	1.63	2.18	1.89	2.05	0.22	0.22	0.21	–	–	–	–	–	–	–	–	–
CN(C(=O)OCCS(C)(=O)=O)S(=O)(=O)c1ccccc1C(=C1C=C(C(O)(C(F)(F)F)C(F)(F)F)C(=O)c2ccccc21)c1cc2c3c(c1)CCCN3CCC2 [Example 26]	–	–	–	–	–	–	–	–	–	1.55	1.56	1.48	2.10	1.91	2.10	0.20	0.23	0.23

From patent US4304833A, “Photographic products and processes employing triarylmethane compounds” (Polaroid Corporation, priority 1980, dated 1981)
